Measurements: PMC4089491, “BuD, a helix–loop–helix DNA-binding domain for genome modification”

Target: T1, BurrH (Burkholderia rhizoxinica) (UniProt E5AV36)
T1 sequence (looked up, limits assumed): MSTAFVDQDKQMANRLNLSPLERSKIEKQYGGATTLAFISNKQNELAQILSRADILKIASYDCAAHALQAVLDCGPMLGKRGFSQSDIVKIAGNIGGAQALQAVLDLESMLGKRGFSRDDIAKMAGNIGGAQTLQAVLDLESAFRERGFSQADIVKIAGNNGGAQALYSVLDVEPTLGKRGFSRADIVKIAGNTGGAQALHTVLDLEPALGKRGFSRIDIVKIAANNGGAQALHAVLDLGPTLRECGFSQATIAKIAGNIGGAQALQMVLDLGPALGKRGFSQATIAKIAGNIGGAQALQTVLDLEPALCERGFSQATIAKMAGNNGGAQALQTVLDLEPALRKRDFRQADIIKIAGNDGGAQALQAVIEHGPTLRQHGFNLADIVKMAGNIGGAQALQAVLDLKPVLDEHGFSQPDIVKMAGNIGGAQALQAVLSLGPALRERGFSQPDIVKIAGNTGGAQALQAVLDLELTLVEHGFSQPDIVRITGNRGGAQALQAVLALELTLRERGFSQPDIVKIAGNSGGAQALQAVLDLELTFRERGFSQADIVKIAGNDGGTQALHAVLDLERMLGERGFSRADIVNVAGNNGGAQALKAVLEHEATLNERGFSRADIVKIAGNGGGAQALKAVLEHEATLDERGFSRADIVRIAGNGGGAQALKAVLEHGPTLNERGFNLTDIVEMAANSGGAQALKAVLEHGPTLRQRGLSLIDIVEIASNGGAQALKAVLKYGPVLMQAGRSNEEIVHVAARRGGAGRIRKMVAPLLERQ
Assay: ITC
Conditions: FA and ITC: 25 mM HEPES pH 8, 150 mM NaCl, 0.2 mM TCEP, 298 K, recombinant protein

“TTAAGAGAAGCAAATACGTTATA [BurrH target ssDNA]”: no binding (single-stranded DNA).

“UUAAGAGAAGCAAAUACGUUAUA / UAUAACGUAUUUGCAACUCUUAA [BurrH target RNA duplex]”: no binding.

Construct, isoform or probe ends are uncertain for at least one entry. Negatives hold for the conditions tested. Protein sequences can lack the tags named with them.
